In the odorant receptor screen of Mainland et al. (2015):
Values joined by “and” are separate entries in the source; they are usually repeats but may differ in a detail not shown here. Equal entries are not always repeated. The list shows a part of the results. Each value is one well over the wells without odorant, computed here; the data are noisy.

Legend:
Assay in all cases: odorant receptor activation (CRE luciferase / Renilla) (fold of no-odor wells); higher = more activation
Conditions in all cases: 100 µM
[1] = tested on: OR8S1 M48V/L82P/R128C/A198T clone 1279
OR8U1 clone 1242 = tested on: OR8U1 clone 1242
OR8U8 clone 1499 = tested on: OR8U8 clone 1499
OR8U9 clone 1439 = tested on: OR8U9 clone 1439
OR9A2 clone 1080 = tested on: OR9A2 clone 1080
OR9A4 clone 1081 = tested on: OR9A4 clone 1081
OR9G1 clone 1111 = tested on: OR9G1 clone 1111
OR9G4 N191D clone 1109 = tested on: OR9G4 N191D clone 1109
OR9G9 clone 1170 = tested on: OR9G9 clone 1170
OR9I1 clone 1180 = tested on: OR9I1 clone 1180

Structure (SMILES)	odorant receptor activation [1]	odorant receptor activation (OR8U1 clone 1242)	odorant receptor activation (OR8U8 clone 1499)	odorant receptor activation (OR8U9 clone 1439)	odorant receptor activation (OR9A2 clone 1080)	odorant receptor activation (OR9A4 clone 1081)	odorant receptor activation (OR9G1 clone 1111)	odorant receptor activation (OR9G4 N191D clone 1109)	odorant receptor activation (OR9G9 clone 1170)	odorant receptor activation (OR9I1 clone 1180)
CCC1(O)C2(C)CCC(C2)C1(C)C (stereo not given) [2-ethylfenchol]	0.701	1.27	1.11	0.549	9.34	3.79	29.5	4.28	1.56	1.08
CCCCCOC(C)=O [n-amyl acetate]	0.392	0.286	0.942 and 0.855	0.765	0.841	1.74	1.84	1.5	0.681	0.682
CC(=O)C(C)=O [diacetyl]	1.17	1.36	1.23	1.23	1.03	1.05	1.26	1	1.06	0.935
CC12C=CCC1C1CCC3=CC(=O)CCC3(C)C1CC2 (stereo not given) [androstadienone]	0.914 and 1.02	1.55 and 1.59	0.568 and 1.52	1.02	0.655	2.39	2.19	0.936	0.867	0.793
C=C(C)C1CC=C(C)C(=O)C1 (stereo not given) [r-carvone]	0.831	0.938	0.795	1.28	1.01	1.17	0.66	0.984	1.04	0.862
CCCCCC(C)=O [2-heptanone]	4.83	0.528	1.08 and 0.735	1.13	0.513	0.718	1.32	0.643	1.06	1.23
CC(C)C(=O)O [isobutyric acid]	0.84 and 0.909	1.61 and 1.51	0.659 and 1.18	0.759	0.551	1.16	1.84	0.49	1.06	0.845
CC(C)(C)c1ccc(CCC=O)cc1 [bourgeonal]	0.785	0.764	1.09	0.119	0.899	0.721	0.792	0.808	0.967	0.643
CCCCCCCC=O [octyl aldehyde]	1.15	1.36	1.24	0.847	1.31	1.31	1	1.49	1.02	0.775
CC1=NC(C)SC1C (stereo not given)	0.538	0.378	1.27 and 1.04	1.09	0.447	1.3	1.19	0.889	0.978	0.857
C=CCc1ccc(OC)c(OC)c1 [eugenol methyl ether]	1.85	1.68	1.14	1.41	1.78	1.38	1.56	1.45	1.56	1.46
CCCCCCOC(=O)CCC [hexyl butyrate]	1.01 and 0.862	0.956 and 1.51	0.711 and 1.02	0.923	0.391	0.754	0.819	0.395	0.762	0.991
COC(=O)c1ccccc1O [methyl salicylate]	1.04	0.924	1.06	1.44	1.09	0.905	0.917	1.02	0.903	0.766
CCCCCCCCCC=O [decyl aldehyde]	1.35	1.69	1.07	1.59	1.18	1.12	1.26	1.16	1.14	1.06
O=C1CCCCCCCCCCCC(=O)OCCO1 [ethylene brassylate]	1.46	1.41	1.19	1.49	1.83	1.38	1.62	1.36	2.26	1.46
CC(C)=CCCC(C)=CC=O [citral]	0.998	1.25	1.09	0.155	1.03	0.924	1.46	1.19	1.09	1.21
CC(=O)c1ccccc1 [acetophenone]	0.747	0.814	1.19 and 0.896	1.12	0.499	1.09	1.33	0.868	0.891	1.33
CC(C)C=O [isobutyraldehyde]	0.971 and 1.08	1.18 and 1.36	0.527 and 1.58	0.842	0.652	8.35	1.77	0.387	1.22	1.04
CC1CCC(C(C)C)C(O)C1 (single isomer, unassigned; (-)) [(-)-menthol]	0.524	0.692	4.18	0.484	9.63	4.05	31.5	5.31	1.27	1.29
c1cnccn1 [pyrazine]	0.815	0.894	0.648	1.15	0.895	1.06	0.951	1.06	1.08	0.973
CCCCCCCCCCC=O [undecanal]	0.949	1.13	0.911	1.07	1.21	1.17	0.787	1.13	1.1	0.908
O=CCc1ccccc1 [phenyl acetaldehyde]	1.22	1.31	0.965	1.31	1.39	1.06	0.85	1.43	1.27	0.951
CCCCCCCC=CC=O [2-decenal]	1.57	1.52	1.89	1.58	10.3	6.62	50.9	6.48	0.833	1.63
CCCCCCCCOC(C)=O [octyl acetate]	1.23	1.36	1.05	1.1	1.19	0.999	1.04	1.4	1.07	0.785
CCCCCCCCC=O [nonyl aldehyde]	1.01	1.24	0.911	1.1	1.32	1.01	0.756	1.33	0.928	0.741
O=C1CCCCC1 [Cyclohexanone]	0.369	0.229	0.89 and 0.912	0.778	1.16	1.41	2.37	1.75	0.518	0.585
CC(C)CCC(=O)O [4-methylvaleric acid]	0.943	1.31	1.12	0.733	4.48	2.43	13.7	2.79	0.905	1.03

Reprinted from the entries so far, 2 compounds:
Structure (SMILES)	odorant receptor activation [1]	odorant receptor activation (OR8U1 clone 1242)	odorant receptor activation (OR8U8 clone 1499)	odorant receptor activation (OR8U9 clone 1439)	odorant receptor activation (OR9A2 clone 1080)	odorant receptor activation (OR9A4 clone 1081)	odorant receptor activation (OR9G1 clone 1111)	odorant receptor activation (OR9G4 N191D clone 1109)	odorant receptor activation (OR9G9 clone 1170)	odorant receptor activation (OR9I1 clone 1180)
CCCCCOC(C)=O [n-amyl acetate]	0.392	0.286	0.942 and 0.855	0.765	0.841	1.74	1.84	1.5	0.681	0.682
CC(=O)C(C)=O [diacetyl]	1.17	1.36	1.23	1.23	1.03	1.05	1.26	1	1.06	0.935
